Data published in patent US6562591.
Results are given in words; binding and its absence hold for the method and conditions named. In cells and extracts the contact can be indirect. Some results given as binding are weak or reduced against the parent protein; the word gives no strength. For some assays here: Where a sequence is shown, tags or fusion partners need not be part of it.

Chains of the proteins cited; added tags and fusions are not shown. Lines headed by an entry give the natural chain unless they say otherwise; changes in a name come on top.
UniProt Q9UKE5: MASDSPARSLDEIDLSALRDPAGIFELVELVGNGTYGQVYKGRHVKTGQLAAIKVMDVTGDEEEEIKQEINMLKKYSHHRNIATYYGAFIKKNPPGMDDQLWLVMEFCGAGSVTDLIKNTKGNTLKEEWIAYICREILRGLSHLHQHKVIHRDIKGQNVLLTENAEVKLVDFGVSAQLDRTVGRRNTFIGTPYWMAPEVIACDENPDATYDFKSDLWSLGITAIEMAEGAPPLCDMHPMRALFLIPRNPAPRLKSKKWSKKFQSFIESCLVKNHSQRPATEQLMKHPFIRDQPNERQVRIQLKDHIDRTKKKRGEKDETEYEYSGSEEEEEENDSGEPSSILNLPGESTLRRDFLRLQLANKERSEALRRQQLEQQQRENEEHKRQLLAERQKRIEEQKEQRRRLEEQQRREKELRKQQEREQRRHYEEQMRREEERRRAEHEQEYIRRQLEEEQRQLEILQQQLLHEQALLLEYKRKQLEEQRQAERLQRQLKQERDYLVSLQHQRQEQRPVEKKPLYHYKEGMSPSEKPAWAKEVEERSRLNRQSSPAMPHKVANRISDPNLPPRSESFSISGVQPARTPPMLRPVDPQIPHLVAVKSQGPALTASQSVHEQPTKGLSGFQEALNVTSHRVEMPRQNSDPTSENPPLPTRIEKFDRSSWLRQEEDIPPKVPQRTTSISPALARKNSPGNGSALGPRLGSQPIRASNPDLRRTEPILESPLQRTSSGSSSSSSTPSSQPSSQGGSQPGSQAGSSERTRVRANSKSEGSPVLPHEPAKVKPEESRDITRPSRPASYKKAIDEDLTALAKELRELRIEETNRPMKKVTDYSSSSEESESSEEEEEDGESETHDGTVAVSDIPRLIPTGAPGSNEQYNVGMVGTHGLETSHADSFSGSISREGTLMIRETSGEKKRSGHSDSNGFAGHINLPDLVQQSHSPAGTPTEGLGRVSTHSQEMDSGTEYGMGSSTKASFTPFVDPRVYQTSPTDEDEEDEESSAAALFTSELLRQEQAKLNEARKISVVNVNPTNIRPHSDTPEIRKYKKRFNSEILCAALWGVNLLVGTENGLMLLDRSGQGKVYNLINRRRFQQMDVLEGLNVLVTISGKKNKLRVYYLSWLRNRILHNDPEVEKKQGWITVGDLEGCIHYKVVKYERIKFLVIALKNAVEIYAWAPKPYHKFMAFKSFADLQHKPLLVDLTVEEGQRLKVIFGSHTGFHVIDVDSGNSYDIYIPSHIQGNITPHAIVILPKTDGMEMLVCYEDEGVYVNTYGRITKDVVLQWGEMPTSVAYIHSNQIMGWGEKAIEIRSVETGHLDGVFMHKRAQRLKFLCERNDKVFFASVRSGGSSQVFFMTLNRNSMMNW

Assays:
[1] = biological target: T1, FLAG-TRAF2, full length human Traf2 with N-terminal FLAG epitope tag (human) (UniProt Q12933); experiment: co-immunoprecipitation: anti-HA IP, anti-FLAG blot, Phoenix-A cell lysates
T1 sequence: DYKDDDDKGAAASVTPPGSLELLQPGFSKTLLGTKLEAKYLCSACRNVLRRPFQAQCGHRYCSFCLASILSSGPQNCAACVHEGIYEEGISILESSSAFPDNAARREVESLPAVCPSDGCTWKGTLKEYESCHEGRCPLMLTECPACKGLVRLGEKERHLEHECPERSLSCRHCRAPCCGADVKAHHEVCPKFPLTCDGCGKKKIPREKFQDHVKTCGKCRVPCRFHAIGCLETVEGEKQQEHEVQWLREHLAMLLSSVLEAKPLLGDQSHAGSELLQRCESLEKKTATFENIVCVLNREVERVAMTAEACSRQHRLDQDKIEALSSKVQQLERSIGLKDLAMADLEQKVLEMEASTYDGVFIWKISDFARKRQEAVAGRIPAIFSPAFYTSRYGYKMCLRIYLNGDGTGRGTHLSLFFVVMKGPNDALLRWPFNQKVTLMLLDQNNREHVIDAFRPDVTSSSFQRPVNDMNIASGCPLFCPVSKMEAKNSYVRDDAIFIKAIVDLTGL

[2] = biological target: T2, endogenous TRAF2 of Phoenix-A cells (UniProt Q12933); experiment: co-immunoprecipitation: anti-HA IP, anti-TRAF2 blot, Phoenix-A cell lysates
T2 sequence (looked up): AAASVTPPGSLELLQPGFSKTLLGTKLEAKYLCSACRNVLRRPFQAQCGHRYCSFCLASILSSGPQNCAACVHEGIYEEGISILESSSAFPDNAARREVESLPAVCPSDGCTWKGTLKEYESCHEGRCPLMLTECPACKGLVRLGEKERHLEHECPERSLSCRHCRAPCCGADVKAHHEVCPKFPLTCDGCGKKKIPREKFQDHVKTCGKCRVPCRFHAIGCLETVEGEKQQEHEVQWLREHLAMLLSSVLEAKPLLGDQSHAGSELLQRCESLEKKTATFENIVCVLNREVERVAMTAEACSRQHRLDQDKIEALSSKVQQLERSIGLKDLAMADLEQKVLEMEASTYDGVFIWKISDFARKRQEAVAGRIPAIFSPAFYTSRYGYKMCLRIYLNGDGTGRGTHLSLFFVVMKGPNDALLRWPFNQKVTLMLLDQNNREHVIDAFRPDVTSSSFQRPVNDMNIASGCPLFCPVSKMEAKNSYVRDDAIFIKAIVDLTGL

[3] = biological target: T2, endogenous TRAF2 of Phoenix-A cells; experiment: co-immunoprecipitation: anti-HA mAb IP, anti-Traf2 pAb blot
[4] = biological target: T1, FLAG-TRAF2, full length human Traf2 with N-terminal FLAG epitope tag (human); experiment: retelling of the co-immunoprecipitation mapping

binding [1]	binding [2]	binding [3]	binding [4]	Substance
binds				HA-Tnik(C1), truncated form of Tnik (from UniProt Q9UKE5 306-1360) (enzyme)
binds	binds	binds	binds	HA-Tnik(WT), full length human Tnik isoform 1 with N-terminal HA epitope tag (from UniProt Q9UKE5 1-1360) (enzyme)
